Measured values taken from patent US8679765B2, “Methods and compositions for diagnosis and treatment of malignant and non-malignant gammopathies” (Ludwig Institute for Cancer Research Ltd., priority 2009, dated 2014).
At least one structure is not confirmed: it was looked up by name or label, or the drawing left a doubt.

Tested on: hyperphosphorylation of Paratarg
Test: Inhibition experiments: LCLs cultured with kinase inhibitors, IEF and immunodetection with anti-STOML2
Format: cell-based, human
Conditions: LCLs of healthy donors or patients, IEF analysis
Protocol: LCLs derived from healthy donors or patients were cultured in the presence of the kinase inhibitors at the indicated concentrations. Lysates were analysed by IEF and immunodetected with anti-STOML2. A shown in this figure, hyperphosphorylation is inhibited by staurosporine, ellagic acid and wortmannin. […] Using BIM_I and Rottlerin, PKC isoform delta or zeta could be identified as responsible for hyperphosphorylation. • a) Same as b), but with other concentrations of the inhibitors.
LCLs were established by infection of PBMCs with EBV as described by Neumann et al (Blood 2005; 106:3105-13).
Stably transfected cell lines were cultured in the presence of inhibitory compounds as indicated. After 5 d cells were removed and analysed by IEF and immunodetection.
In MGUS/MM patients and their relatives hyperphosphorylated paratarg is expressed constitutively, while hyperphosphorylation of paratarg is temporary in all healthy persons and cell lines analysed. This was seen by culturing LCLs and cell lines in the presence of kinase or phosphatase inhibitors. The identification of Ser17 as the differential phosphorylation site led to the prediction of a […] (PKC) responsible for hyperphosphorylation. […]

COC[C@H]1OC(=O)c2coc3c2[C@@]1(C)C1=C(C3=O)[C@@H]2CCC(=O)[C@@]2(C)C[C@H]1OC(C)=O [wortmannin]
effect on hyperphosphorylation of paratarg: inhibited
